Assay [1] has as its target T1, Phospholipase C γ1 (PLCγ1), endogenous (human (endogenous in HEK293 and HEK293T)) (UniProt P19174).
T1 sequence: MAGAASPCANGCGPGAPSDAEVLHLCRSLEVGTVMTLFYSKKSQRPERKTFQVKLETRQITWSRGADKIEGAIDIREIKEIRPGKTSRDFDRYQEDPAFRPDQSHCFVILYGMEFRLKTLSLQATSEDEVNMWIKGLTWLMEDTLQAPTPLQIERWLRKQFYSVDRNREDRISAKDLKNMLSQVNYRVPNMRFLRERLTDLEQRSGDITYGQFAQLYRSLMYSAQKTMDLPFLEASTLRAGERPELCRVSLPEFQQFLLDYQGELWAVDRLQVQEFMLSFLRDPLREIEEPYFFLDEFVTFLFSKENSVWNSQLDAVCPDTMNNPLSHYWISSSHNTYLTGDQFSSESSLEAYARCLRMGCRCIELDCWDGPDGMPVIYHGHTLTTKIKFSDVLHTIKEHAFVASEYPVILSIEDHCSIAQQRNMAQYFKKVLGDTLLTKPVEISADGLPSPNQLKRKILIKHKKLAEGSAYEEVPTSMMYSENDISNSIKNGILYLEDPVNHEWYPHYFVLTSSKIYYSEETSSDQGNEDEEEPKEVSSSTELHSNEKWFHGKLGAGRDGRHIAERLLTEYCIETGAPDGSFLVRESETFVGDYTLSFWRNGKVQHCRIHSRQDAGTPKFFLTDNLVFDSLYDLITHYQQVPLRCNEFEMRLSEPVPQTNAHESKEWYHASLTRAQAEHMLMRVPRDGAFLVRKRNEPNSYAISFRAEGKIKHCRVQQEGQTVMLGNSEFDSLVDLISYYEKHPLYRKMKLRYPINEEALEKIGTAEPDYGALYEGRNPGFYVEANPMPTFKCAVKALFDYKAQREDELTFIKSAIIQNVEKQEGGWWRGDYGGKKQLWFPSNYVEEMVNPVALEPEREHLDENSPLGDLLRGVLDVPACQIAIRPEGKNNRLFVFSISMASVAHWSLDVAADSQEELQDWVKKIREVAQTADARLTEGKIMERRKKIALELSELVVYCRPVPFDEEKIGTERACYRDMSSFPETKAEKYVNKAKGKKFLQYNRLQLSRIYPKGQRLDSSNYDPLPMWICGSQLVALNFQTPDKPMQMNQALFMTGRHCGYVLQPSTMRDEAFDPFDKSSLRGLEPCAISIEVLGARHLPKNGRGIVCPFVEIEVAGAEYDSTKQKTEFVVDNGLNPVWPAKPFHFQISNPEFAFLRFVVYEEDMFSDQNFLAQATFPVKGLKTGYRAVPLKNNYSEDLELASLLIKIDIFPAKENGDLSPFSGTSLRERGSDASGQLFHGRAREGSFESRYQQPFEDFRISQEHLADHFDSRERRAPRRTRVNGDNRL
In words: co-IP; HEK293T transiently transfected with pFJ-K15P or pFJ-K15M; endogenous PLCγ1 immunoprecipitated; K15 detected with an antibody to the FLAG tag.

Assay [2] concerns the target GST fusion of the cytoplasmic domain of K15-P, YF/ΔSH3 double mutant (Kaposi's Sarcoma Herpesvirus (KSHV, HHV8)). Description: pull-down; GST fusion proteins on glutathione sepharose beads incubated with cleared HEK293T lysates (TBS-T) overnight at 4°C; bound endogenous PLCγ1 detected by Western blot; only the target purified. In general terms: In western blotting, separated proteins are transferred to a membrane and probed.

The target in assay [3] is GST fusion of the cytoplasmic domain of K15-P, ΔSH3 (Kaposi's Sarcoma Herpesvirus (KSHV, HHV8)). The description is as above.

In PMC3460623 one finds binding data, which are given here for 2 molecules.

No constants are given. Whether binding was seen depends on the method and setting. Binding seen in cells or lysates may run through a third protein. For part of these data: A result given as binding can be weak or reduced; the word gives no strength.

For the molecule FLAG-tagged K15M (pFJ-K15M), the binding result in assay [1] was “binds”.

B1: Phospholipase C γ1 (PLCγ1), endogenous (enzyme, UniProt P19174 1-1290)
chain: MAGAASPCANGCGPGAPSDAEVLHLCRSLEVGTVMTLFYSKKSQRPERKTFQVKLETRQITWSRGADKIEGAIDIREIKEIRPGKTSRDFDRYQEDPAFRPDQSHCFVILYGMEFRLKTLSLQATSEDEVNMWIKGLTWLMEDTLQAPTPLQIERWLRKQFYSVDRNREDRISAKDLKNMLSQVNYRVPNMRFLRERLTDLEQRSGDITYGQFAQLYRSLMYSAQKTMDLPFLEASTLRAGERPELCRVSLPEFQQFLLDYQGELWAVDRLQVQEFMLSFLRDPLREIEEPYFFLDEFVTFLFSKENSVWNSQLDAVCPDTMNNPLSHYWISSSHNTYLTGDQFSSESSLEAYARCLRMGCRCIELDCWDGPDGMPVIYHGHTLTTKIKFSDVLHTIKEHAFVASEYPVILSIEDHCSIAQQRNMAQYFKKVLGDTLLTKPVEISADGLPSPNQLKRKILIKHKKLAEGSAYEEVPTSMMYSENDISNSIKNGILYLEDPVNHEWYPHYFVLTSSKIYYSEETSSDQGNEDEEEPKEVSSSTELHSNEKWFHGKLGAGRDGRHIAERLLTEYCIETGAPDGSFLVRESETFVGDYTLSFWRNGKVQHCRIHSRQDAGTPKFFLTDNLVFDSLYDLITHYQQVPLRCNEFEMRLSEPVPQTNAHESKEWYHASLTRAQAEHMLMRVPRDGAFLVRKRNEPNSYAISFRAEGKIKHCRVQQEGQTVMLGNSEFDSLVDLISYYEKHPLYRKMKLRYPINEEALEKIGTAEPDYGALYEGRNPGFYVEANPMPTFKCAVKALFDYKAQREDELTFIKSAIIQNVEKQEGGWWRGDYGGKKQLWFPSNYVEEMVNPVALEPEREHLDENSPLGDLLRGVLDVPACQIAIRPEGKNNRLFVFSISMASVAHWSLDVAADSQEELQDWVKKIREVAQTADARLTEGKIMERRKKIALELSELVVYCRPVPFDEEKIGTERACYRDMSSFPETKAEKYVNKAKGKKFLQYNRLQLSRIYPKGQRLDSSNYDPLPMWICGSQLVALNFQTPDKPMQMNQALFMTGRHCGYVLQPSTMRDEAFDPFDKSSLRGLEPCAISIEVLGARHLPKNGRGIVCPFVEIEVAGAEYDSTKQKTEFVVDNGLNPVWPAKPFHFQISNPEFAFLRFVVYEEDMFSDQNFLAQATFPVKGLKTGYRAVPLKNNYSEDLELASLLIKIDIFPAKENGDLSPFSGTSLRERGSDASGQLFHGRAREGSFESRYQQPFEDFRISQEHLADHFDSRERRAPRRTRVNGDNRL
For the molecule B1, the binding entry is listed as “no binding” in assay [2] and “binds” in assay [3].
